Data reported in US10918731B2, “HSP90 inhibitory peptide conjugate and application thereof in treating tumor” (INSTITUTE OF BASIC MEDICAL SCIENCES, CHINESE ACADEMY OF …, priority 2015, dated 2021).
At least one structure is not confirmed: it was looked up by name or label, or the drawing left a doubt. Numbered stars: 1 amine (or outer) side, 2 acyl side, 3 side chain; on linkers, the order of the positions; unused ones are H or OH. Peptide text beside a SMILES is read from it. * marks the point of attachment. X1 = COc1ccc2c(c1)C(=O)c1c(O)c3c(c(O)c1C2=O)C[C@@](O)(C(=O)CO)C[C@@H]3OC1CC(N*)C(O)C(C)O1; Suc = O=C(CCC(=O)[*:2])[*:1]

Key:
[1] = tested on: Lung adenocarcinoma A549 cells; experiment: CCK-8 cytotoxicity, lung adenocarcinoma A549 cells; type: cell-based, human; conditions: Lung A549, 48 h incubation
Protocol: (§1) Lung adenocarcinoma A549, breast cancer MCF-7S and melanoma A375 cells were diluted respectively to 3×10^4 cells/ml and pipetted to 96-well plate with 100 μl in each well. Twenty-four hours later, 5, 20, 80 or 320 nM DTX-P7, Paclitaxel-heptapeptide conjugate (PTX-P7), Doxorubicin-NH2-heptapeptide conjugate (DOX-P7) and Doxorubicin-OH-heptapeptide conjugate (DOX-OH-P7) were added to the wells and incubated for 48 h. Then 10 μl CCK-8 was added and measured 1.5 h later at 450 nm to calculate the viability and median inhibitory concentration IC50.

[2] = tested on: breast cancer MCF-7S cells; experiment: CCK-8 cytotoxicity, breast cancer MCF-7S cells; type: cell-based; conditions: 48 h incubation
Protocol: as §1

melanoma A375 cells = experiment: CCK-8 cytotoxicity, melanoma A375 cells; type: cell-based; conditions: Melanoma A375, 48 h incubation
Protocol: as §1

## COc1ccc2c(c1)C(=O)c1c(O)c3c(c(O)c1C2=O)C[C@@](O)(C(=O)CO)C[C@@H]3OC1CC(NC(=O)CCC(=O)N[C@@H](CC(C)C)C(=O)N2CCC[C@H]2C(=O)N[C@@H](CC(C)C)C(=O)N[C@H](C(=O)N2CCC[C@H]2C(=O)N[C@@H](CC(C)C)C(=O)N2CCC[C@H]2C(=O)O)[C@@H](C)O)C(O)C(C)O1 (stereo partly drawn) [DOX-P7] ({X1-Suc}-LPLTPLP-OH)
[1]
  IC50: 6.5 nM
[2]
  IC50: 23.3 nM
Melanoma A375 cells
  IC50: 30.6 nM
